# Experimental data: the supplement of paper PMC6411743
# ± gives the standard deviation of the averaged measurements. This is a selection; strong and weak results do not stand in their true shares.
# Key:
# Test in all cases: NP40-soluble protein abundance relative to vehicle (solubility fold change) (ratio); higher = more soluble protein in presence of AMP-PNP
# PSMD6 = biological target: T1, PSMD6 (UniProt Q15008)
# T1 sequence (whole entry): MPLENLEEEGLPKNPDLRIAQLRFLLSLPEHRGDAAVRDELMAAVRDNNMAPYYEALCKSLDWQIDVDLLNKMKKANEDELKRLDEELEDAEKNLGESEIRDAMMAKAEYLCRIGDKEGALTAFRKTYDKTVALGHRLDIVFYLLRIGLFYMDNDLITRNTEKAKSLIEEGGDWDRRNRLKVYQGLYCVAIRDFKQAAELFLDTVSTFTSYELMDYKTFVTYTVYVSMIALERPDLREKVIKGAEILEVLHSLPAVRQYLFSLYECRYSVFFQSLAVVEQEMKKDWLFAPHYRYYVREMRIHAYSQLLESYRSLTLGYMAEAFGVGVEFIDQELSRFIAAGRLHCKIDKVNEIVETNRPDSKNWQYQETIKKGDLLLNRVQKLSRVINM
# Procedure, shortened: (§1)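 Jurkat crude lysate prepared with a Dounce homogeniser was treated at eight concentrations spanning 0.1 to 10 mM, 10 min at room temperature then 3 min at 37 °C. Solubilisation with 0.8% NP40 and benzonase and ultracentrifugation preceded TMT labelling of the supernatant for LC-MS/MS. Fold change against the detergent-processed vehicle was determined per replicate from vsn-normalised intensities, across three independent experiments.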
# [1] = biological target: T2, UniProt Q13137 and related entries
# T2 sequence (whole entry): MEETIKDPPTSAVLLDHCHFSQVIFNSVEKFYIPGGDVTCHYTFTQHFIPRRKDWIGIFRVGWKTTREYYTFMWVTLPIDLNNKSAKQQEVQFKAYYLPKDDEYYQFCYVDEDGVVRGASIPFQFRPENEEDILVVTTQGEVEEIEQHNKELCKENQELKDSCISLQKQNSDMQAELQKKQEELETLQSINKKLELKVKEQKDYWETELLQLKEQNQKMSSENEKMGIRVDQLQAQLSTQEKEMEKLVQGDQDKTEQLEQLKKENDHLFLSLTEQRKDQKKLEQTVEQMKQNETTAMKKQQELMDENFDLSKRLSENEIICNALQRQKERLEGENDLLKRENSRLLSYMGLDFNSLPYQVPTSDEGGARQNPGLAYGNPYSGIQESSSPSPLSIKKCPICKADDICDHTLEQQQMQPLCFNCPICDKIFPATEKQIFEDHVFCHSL
# Procedure, shortened: as §1
# [2] = biological target: T3, UniProt Q13608 and related entries
# T3 sequence (whole entry): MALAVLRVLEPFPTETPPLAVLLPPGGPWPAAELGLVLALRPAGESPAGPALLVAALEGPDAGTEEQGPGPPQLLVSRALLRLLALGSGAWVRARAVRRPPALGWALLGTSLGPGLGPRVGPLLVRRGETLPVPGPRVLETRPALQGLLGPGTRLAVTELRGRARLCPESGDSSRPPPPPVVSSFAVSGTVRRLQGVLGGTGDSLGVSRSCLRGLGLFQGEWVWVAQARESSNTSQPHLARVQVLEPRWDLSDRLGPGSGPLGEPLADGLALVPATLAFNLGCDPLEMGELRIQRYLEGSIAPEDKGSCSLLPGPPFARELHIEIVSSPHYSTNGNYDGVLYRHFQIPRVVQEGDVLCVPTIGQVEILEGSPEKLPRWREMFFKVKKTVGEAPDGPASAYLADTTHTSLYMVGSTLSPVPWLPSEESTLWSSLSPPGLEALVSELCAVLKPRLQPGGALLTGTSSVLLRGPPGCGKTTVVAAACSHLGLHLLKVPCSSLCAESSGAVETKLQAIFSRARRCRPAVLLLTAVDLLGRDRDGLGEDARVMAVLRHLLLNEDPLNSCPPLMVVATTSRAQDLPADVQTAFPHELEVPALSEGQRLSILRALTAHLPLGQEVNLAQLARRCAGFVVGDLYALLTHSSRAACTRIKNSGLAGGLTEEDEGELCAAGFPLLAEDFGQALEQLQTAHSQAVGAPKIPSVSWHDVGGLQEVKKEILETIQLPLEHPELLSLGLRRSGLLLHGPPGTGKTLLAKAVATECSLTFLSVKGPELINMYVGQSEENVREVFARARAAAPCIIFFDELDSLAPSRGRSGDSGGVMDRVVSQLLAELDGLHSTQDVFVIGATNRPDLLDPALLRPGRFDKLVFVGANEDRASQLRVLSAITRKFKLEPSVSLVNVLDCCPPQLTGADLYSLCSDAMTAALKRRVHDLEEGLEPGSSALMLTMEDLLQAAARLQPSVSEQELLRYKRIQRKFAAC
# Procedure, shortened: as §1
# [3] = biological target: T4, UniProt Q14697 and related entries
# T4 sequence (whole entry): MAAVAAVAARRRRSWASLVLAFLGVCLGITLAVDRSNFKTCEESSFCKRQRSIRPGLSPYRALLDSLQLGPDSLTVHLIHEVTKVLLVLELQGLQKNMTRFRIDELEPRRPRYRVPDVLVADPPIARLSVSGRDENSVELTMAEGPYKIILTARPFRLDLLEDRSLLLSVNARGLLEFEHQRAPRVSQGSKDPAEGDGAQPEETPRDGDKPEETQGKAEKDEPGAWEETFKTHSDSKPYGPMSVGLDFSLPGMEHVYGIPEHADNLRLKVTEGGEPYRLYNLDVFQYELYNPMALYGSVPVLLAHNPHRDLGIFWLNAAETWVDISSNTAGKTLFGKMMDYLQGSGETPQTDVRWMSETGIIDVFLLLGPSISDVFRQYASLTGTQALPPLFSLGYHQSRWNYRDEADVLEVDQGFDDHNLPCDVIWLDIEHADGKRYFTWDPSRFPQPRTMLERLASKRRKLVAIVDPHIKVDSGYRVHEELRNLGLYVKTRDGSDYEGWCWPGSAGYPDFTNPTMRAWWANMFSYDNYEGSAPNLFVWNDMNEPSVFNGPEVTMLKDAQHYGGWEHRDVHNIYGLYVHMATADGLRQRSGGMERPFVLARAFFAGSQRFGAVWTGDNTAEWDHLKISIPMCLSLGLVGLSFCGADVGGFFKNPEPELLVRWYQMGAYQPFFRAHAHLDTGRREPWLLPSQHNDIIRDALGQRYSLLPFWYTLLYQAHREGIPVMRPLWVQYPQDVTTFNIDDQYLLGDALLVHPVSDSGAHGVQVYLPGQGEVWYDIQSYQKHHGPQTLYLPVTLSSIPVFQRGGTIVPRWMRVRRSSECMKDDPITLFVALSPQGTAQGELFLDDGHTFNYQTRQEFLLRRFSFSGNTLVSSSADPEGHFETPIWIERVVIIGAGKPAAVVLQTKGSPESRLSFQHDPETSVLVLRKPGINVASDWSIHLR
# Procedure, shortened: as §1
# [4] = biological target: T5, UniProt Q147X3 and related entries
# T5 sequence (whole entry): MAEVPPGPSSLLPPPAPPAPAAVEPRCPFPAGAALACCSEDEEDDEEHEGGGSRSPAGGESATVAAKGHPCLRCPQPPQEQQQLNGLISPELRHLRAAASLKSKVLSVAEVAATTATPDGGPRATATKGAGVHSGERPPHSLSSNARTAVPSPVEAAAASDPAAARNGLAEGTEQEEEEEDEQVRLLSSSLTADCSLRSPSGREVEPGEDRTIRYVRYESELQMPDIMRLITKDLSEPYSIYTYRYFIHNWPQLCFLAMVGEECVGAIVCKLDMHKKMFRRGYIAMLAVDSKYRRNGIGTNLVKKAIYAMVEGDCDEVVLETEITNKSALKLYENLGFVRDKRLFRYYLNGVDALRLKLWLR
# Procedure, shortened: as §1
# [5] = biological target: T6, UniProt Q14807 and related entries
# T6 sequence (whole entry): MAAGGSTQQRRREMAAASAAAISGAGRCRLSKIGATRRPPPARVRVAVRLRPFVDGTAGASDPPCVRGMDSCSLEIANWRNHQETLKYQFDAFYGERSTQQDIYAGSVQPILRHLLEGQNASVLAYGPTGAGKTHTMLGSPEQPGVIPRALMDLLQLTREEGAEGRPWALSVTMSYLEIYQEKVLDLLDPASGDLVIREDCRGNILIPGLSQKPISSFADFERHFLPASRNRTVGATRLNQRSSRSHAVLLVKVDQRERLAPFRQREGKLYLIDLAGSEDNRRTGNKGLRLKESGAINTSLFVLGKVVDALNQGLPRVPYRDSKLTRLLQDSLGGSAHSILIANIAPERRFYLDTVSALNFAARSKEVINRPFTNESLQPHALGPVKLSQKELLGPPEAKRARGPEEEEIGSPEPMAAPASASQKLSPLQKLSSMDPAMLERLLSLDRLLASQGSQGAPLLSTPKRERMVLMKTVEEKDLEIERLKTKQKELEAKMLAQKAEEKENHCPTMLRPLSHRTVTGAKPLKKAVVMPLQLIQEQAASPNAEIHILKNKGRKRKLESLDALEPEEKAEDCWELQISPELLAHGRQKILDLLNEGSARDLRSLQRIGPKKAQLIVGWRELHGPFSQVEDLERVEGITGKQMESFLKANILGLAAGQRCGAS
# Procedure, shortened: as §1
smiles,measurement,setting,value
Nc1ncnc2c1ncn2[C@@H]1O[C@H](COP(=O)(O)OP(=O)(O)NP(=O)(O)O)[C@@H](O)[C@H]1O [adenylyl imidodiphosphate],NP40-soluble protein abundance,PSMD6; concentration: 6mM,0.914 ± 0.11
same,NP40-soluble protein abundance,PSMD6; concentration: 8mM,0.928 ± 0.098
same,NP40-soluble protein abundance,PSMD6; concentration: 10mM,0.916 ± 0.12
same,NP40-soluble protein abundance,[1]; concentration: 1mM,1.03 ± 0.019
same,NP40-soluble protein abundance,[1]; concentration: 2mM,1.05 ± 0.016
same,NP40-soluble protein abundance,[1]; concentration: 4mM,1.01 ± 0.033
same,NP40-soluble protein abundance,[1]; concentration: 6mM,0.967 ± 0.079
same,NP40-soluble protein abundance,[1]; concentration: 8mM,0.948 ± 0.028
same,NP40-soluble protein abundance,[1]; concentration: 10mM,0.963 ± 0.04
same,NP40-soluble protein abundance,[2]; concentration: 1mM,1.1 ± 0.023
same,NP40-soluble protein abundance,[2]; concentration: 2mM,1.08 ± 0.059
same,NP40-soluble protein abundance,[2]; concentration: 4mM,1.12 ± 0.06
same,NP40-soluble protein abundance,[2]; concentration: 6mM,1.08 ± 0.093
same,NP40-soluble protein abundance,[2]; concentration: 8mM,1.06 ± 0.075
same,NP40-soluble protein abundance,[2]; concentration: 10mM,1.1 ± 0.069
same,NP40-soluble protein abundance,[3]; concentration: 1mM,0.919 ± 0.025
same,NP40-soluble protein abundance,[3]; concentration: 2mM,0.889 ± 0.066
same,NP40-soluble protein abundance,[3]; concentration: 4mM,0.936 ± 0.021
same,NP40-soluble protein abundance,[3]; concentration: 6mM,0.962 ± 0.054
same,NP40-soluble protein abundance,[3]; concentration: 8mM,0.972 ± 0.052
same,NP40-soluble protein abundance,[3]; concentration: 10mM,0.935 ± 0.02
same,NP40-soluble protein abundance,[4]; concentration: 1mM,0.992 ± 0.016
same,NP40-soluble protein abundance,[4]; concentration: 2mM,0.971 ± 0.025
same,NP40-soluble protein abundance,[4]; concentration: 4mM,1.01 ± 0.059
same,NP40-soluble protein abundance,[4]; concentration: 6mM,1.03 ± 0.046
same,NP40-soluble protein abundance,[4]; concentration: 8mM,0.99 ± 0.023
same,NP40-soluble protein abundance,[4]; concentration: 10mM,1 ± 0.025
same,NP40-soluble protein abundance,[5]; concentration: 1mM,1.07 ± 0.029
same,NP40-soluble protein abundance,[5]; concentration: 2mM,1.07 ± 0.02
same,NP40-soluble protein abundance,[5]; concentration: 4mM,1.16 ± 0.046
same,NP40-soluble protein abundance,[5]; concentration: 6mM,1.2 ± 0.032
same,NP40-soluble protein abundance,[5]; concentration: 8mM,1.23 ± 0.079
same,NP40-soluble protein abundance,[5]; concentration: 10mM,1.26 ± 0.082

# Part of the list above, reformatted:
smiles | measurement | setting | value
Nc1ncnc2c1ncn2[C@@H]1O[C@H](COP(=O)(O)OP(=O)(O)NP(=O)(O)O)[C@@H](O)[C@H]1O [adenylyl imidodiphosphate] | NP40-soluble protein abundance | [3]; concentration: 4mM | 0.936 ± 0.021
same | NP40-soluble protein abundance | [3]; concentration: 6mM | 0.962 ± 0.054
